We go through 18 compounds from PubChem BioAssay AID212 (DTP/NCI, 2004).

The list shows only some results of the screen, not a fair sample: it gathers tests that were run many times, whatever their T/C, doses with no T/C, and many T/C values between a quarter and a half above the control. Other doses and runs of a compound stand elsewhere. T/C is the treated group as % of the vehicle group. Schedules are NCI's codes, read here as Q, the interval in days (D) or hours (H), X, the number of doses. Some T/C values carry the count of animals alive at the toxicity check (mostly the fifth day); without a count, all were alive then. Some entries were tested several times; the results are listed from low to high. Counts like (3×) stand for listed records that agree. Some doses have a count of surviving animals in place of a T/C: the source files T/C as zero there, which appears to mark a toxic dose or a test without result, not a measured value. Counts of survivors are from the toxicity check (mostly the fifth day) where no day follows; animals may have died later.

The test system of this experiment is BDF1 mice, colon carcinoma 38 sc, T/C %. The experiment is described as follows: NCI In Vivo Anticancer Drug Screen. Data for tumor model Colon Carcinoma 38 (subcutaneous) in B6D2F1 (BDF1) mice. The conditions noted are these: T/C endpoint: median tumor weight (est.), higher T/C = larger tumour; for T/C: evaluated on day 20. The method, boiled down:
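Compound antitumor activity was assessed in mice carrying transplantable tumors. Survival or tumor size was recorded, and each value is the treated-group measurement divided by that of the vehicle-treated control group.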

The mark [1] stands for this setting: dose: 200.0 mg/kg/injection, schedule: Q07DX002 (ip), vehicle: saline with Tween-80.
[2] abbreviates: dose: 200.0 mg/kg/injection, schedule: Q07DX002 (ip), vehicle: Klucel (hydroxypropylcellulose) (HPC).
The mark [3] stands for this setting: dose: 400.0 mg/kg/injection, schedule: Q07DX002 (ip), vehicle: Klucel (hydroxypropylcellulose) (HPC).
The mark [4] stands for this setting: dose: 100.0 mg/kg/injection, schedule: Q07DX002 (ip), vehicle: Klucel (hydroxypropylcellulose) (HPC).
The mark [5] stands for this setting: dose: 40.0 mg/kg/injection, schedule: Q07DX002 (ip), vehicle: saline.

For the compound `C[Si](C)(CCl)N[Si](C)(C)CCl`, the T/C under setting [1] is 139 % of control. Moreover, the survivor count (dose: 800.0 mg/kg/injection, schedule: Q07DX002 (ip), vehicle: saline with Tween-80) was 1 of 10 on day 20.

Consider `COC1=C(C)C(=O)C2=C(C1=O)C1C3CC4=C(C(=O)C(OC)=C(C)C4=O)C(CNC(=O)C(C)=O)N3C(C#N)C(C2)N1C` (configuration not stated), for which the survivor count reads like this: (dose: 2.5 mg/kg/injection, schedule: Q07DX002 (ip), vehicle: Klucel (hydroxypropylcellulose) (HPC)) 6 of 10 on day 20; (dose: 5.0 mg/kg/injection, schedule: Q07DX002 (ip), vehicle: Klucel (hydroxypropylcellulose) (HPC)) 3 of 10 on day 20; (dose: 8.0 mg/kg/injection, schedule: Q07DX002 (ip), vehicle: Klucel (hydroxypropylcellulose) (HPC)) 0 of 10 on day 20; (dose: 10.0 mg/kg/injection, schedule: Q07DX002 (ip), vehicle: Klucel (hydroxypropylcellulose) (HPC)) 0 of 10 on day 20.

For the compound `C=C1C(=O)OCC1C(=O)O` (configuration not stated), for the setting “dose: 128.0 mg/kg/injection, schedule: Q07DX002 (ip), vehicle: saline”, the survivor count is 5 of 10 on day 20.

Take `CCN(CC)c1ccc2cc(-c3nc4ccccc4n3C)c(=O)oc2c1`: the survivor count reads like this: under setting [2], 0 of 10 on day 20; under setting [3], 1 of 10 on day 20.

`C=CCOCC1CO1` (configuration not stated): the T/C (dose: 12.5 mg/kg/injection, schedule: Q07DX002 (ip), vehicle: saline) is 125 % of control; the T/C (dose: 100.0 mg/kg/injection, schedule: Q07DX002 (ip), vehicle: saline) is 130 % of control; the T/C (dose: 200.0 mg/kg/injection, schedule: Q07DX002 (ip), vehicle: saline) is 128 % of control [8 of 10 alive on day 20]. For the same compound, the survivor count (dose: 400.0 mg/kg/injection, schedule: Q07DX002 (ip), vehicle: saline) is 2 of 10 on day 20 and 6 of 10 on day 20.

As to `CC1CCC(n2cnc3c(Cl)ncnc32)O1` (configuration not stated), the survivor count is, setting by setting: (dose: 500.0 mg/kg/injection, schedule: Q07DX002 (ip), vehicle: Klucel (hydroxypropylcellulose) (HPC)) 5 of 10 on day 20; (dose: 800.0 mg/kg/injection, schedule: Q07DX002 (ip), vehicle: Klucel (hydroxypropylcellulose) (HPC)) 0 of 10 on day 20; (dose: 1000.0 mg/kg/injection, schedule: Q07DX002 (ip), vehicle: Klucel (hydroxypropylcellulose) (HPC)) 0 of 10 on day 20; (dose: 2000.0 mg/kg/injection, schedule: Q07DX002 (ip), vehicle: Klucel (hydroxypropylcellulose) (HPC)) 0 of 10 on day 20.

Turning to `CCOC(=O)c1ccc(NN=NCCF)cc1`, where the note is “dose: 50.0 mg/kg/injection, schedule: Q07DX002 (ip), vehicle: saline with Tween-80”, the survivor count is reported as 2 of 10 on day 20.

Regarding `CCC1OC(OC)C=CC1=O` (configuration not stated), the survivor count is 0 of 10 on day 20 under setting [1] and 0 of 10 on day 20 (dose: 400.0 mg/kg/injection, schedule: Q07DX002 (ip), vehicle: saline with Tween-80).

Turning to `OC(C1CO1)C(O)C1CO1` (configuration not stated), the T/C (dose: 4.0 mg/kg/injection, schedule: Q07DX002 (ip), vehicle: saline) is 132 % of control. Further, the survivor count is on record as 0 of 10 on day 20 (dose: 16.0 mg/kg/injection, schedule: Q07DX002 (ip), vehicle: saline) and 2 of 10 (dose: 16.0 mg/kg/injection, schedule: Q07DX003 (ip), vehicle: saline).

As for `CC(=O)Oc1c[nH]c(=O)[nH]c1=O`, the T/C reads like this: (dose: 50.0 mg/kg/injection, schedule: Q07DX002 (ip), vehicle: distilled water + Tween-80) 132 % of control; (dose: 400.0 mg/kg/injection, schedule: Q07DX002 (ip), vehicle: distilled water + Tween-80) 133 % of control.

Consider `CN1N=C(N)c2cn(C3OC(COP(=O)(O)O)C(O)C3O)c3ncnc1c23` (configuration not stated), for which the survivor count is 4 of 10 on day 20 (dose: 100.0 mg/kg/injection, schedule: Q07DX002 (ip), vehicle: water); 0 of 10 on day 20 and 4 of 10 on day 20 (dose: 200.0 mg/kg/injection, schedule: Q07DX002 (ip), vehicle: water).

Take `C[C@@H]1C(=O)C[C@H]2C(C)(C)CCC[C@]2(C)[C@@]1(O)CCc1ccoc1`: the T/C under setting [4] is 128 % of control.

For `O=NN(CCCl)C(=O)Oc1cc(Cl)c(Cl)cc1Cl`, the survivor count runs as follows: under setting [4], 2 of 10 on day 20; under setting [2], 0 of 10 on day 20; under setting [3], 0 of 10 on day 20.

In the case of `c1ccc([C@H]2CN3CCSC3=N2)cc1`, the T/C runs as follows: (dose: 5.0 mg/kg/injection, schedule: Q07DX002 (ip), vehicle: saline) 58, 80, 81 (2×), 94 [9 of 10 alive on day 20] (2×), 100, 102, 120, 132 [9 of 10 alive on day 20], 133 % of control [7 of 9 alive on day 20]; (dose: 10.0 mg/kg/injection, schedule: Q07DX002 (ip), vehicle: saline) 87 [9 of 10 alive on day 20], 89, 96 [9 of 10 alive on day 20], 98, 101, 106 [9 of 10 alive on day 20], 109, 123, 125, 132, 147 % of control; (dose: 10.0 mg/kg/injection, schedule: Q07DX003 (ip), vehicle: saline) 130 % of control; (dose: 20.0 mg/kg/injection, schedule: Q07DX002 (ip), vehicle: saline) 71, 81 [9 of 10 alive on day 20], 89 [8 of 10 alive on day 20], 93 [9 of 10 alive on day 20], 97, 98, 103 [9 of 10 alive on day 20], 114, 114 [9 of 10 alive on day 20], 123, 124 % of control; under setting [5], 68 [7 of 10 alive on day 20], 77 [7 of 10 alive on day 20], 83 [9 of 10 alive on day 20], 93, 99, 102 [8 of 10 alive on day 20], 104 [8 of 10 alive on day 20], 123 [9 of 10 alive on day 20], 151 % of control [9 of 10 alive on day 20]; (dose: 40.0 mg/kg/injection, schedule: Q07DX003 (ip), vehicle: saline) 142 % of control. In addition, the survivor count by setting is: under setting [5], 5 of 10 on day 20 and 6 of 10 on day 20; (dose: 80.0 mg/kg/injection, schedule: Q07DX002 (ip), vehicle: saline) 0 of 10 on day 20, 1 of 10 on day 20, 2 of 10 on day 20.

As for `Cc1ncc([N+](=O)[O-])n1CCO`, the T/C reads like this: (dose: 37.5 mg/kg/injection, schedule: Q07DX002 (ip), vehicle: Klucel (hydroxypropylcellulose) (HPC)) 137 % of control; (dose: 600.0 mg/kg/injection, schedule: Q04DX003 (ip), vehicle: Klucel (hydroxypropylcellulose) (HPC)) 138 % of control.

For `CCN1/C(=C/C=C/C=C/c2sc3ccccc3[n+]2CC)Sc2ccccc21`, the T/C (dose: 0.25 mg/kg/injection, schedule: Q07DX002 (ip), vehicle: saline) is 145 % of control. Further, the survivor count (dose: 1.0 mg/kg/injection, schedule: Q07DX002 (ip), vehicle: suspension in saline) is listed as 4 of 10 on day 20.

Take `N#C[Se-].c1ccc([Te+](c2ccccc2)c2ccccc2)cc1`: the survivor count reads like this: (dose: 50.0 mg/kg/injection, schedule: Q07DX002 (ip), vehicle: Klucel (hydroxypropylcellulose) (HPC)) 3 of 10 on day 20; under setting [4], 0 of 10 on day 20.

As for `[Cl][Pt+2][Cl].[NH-]C1CCC1.[NH2-]`, the survivor count is, setting by setting: (dose: 24.0 mg/kg/injection, schedule: Q07DX002 (ip), vehicle: saline) 1 of 10 on day 20; (dose: 48.0 mg/kg/injection, schedule: Q07DX002 (ip), vehicle: saline) 0 of 10 on day 20 and 1 of 10 on day 20.
